Results of single-concentration screens

Measurements from “University of Dundee, Small-Polar-MMV Screening Library” (2021), ChEMBL document CHEMBL3988442.

A: 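Growth of Mycobacterium tuberculosis over 4 days (cholesterol / DPPC medium with tyloxapol); the read-out is not stated. Compounds at 50 µM. Higher reads as more growth inhibition (inferred: compounds with an IC50 in retests scored well above the rest). Of about 69,000 compounds tested this way, about 370 (0.54%) reached 50% or more in at least one test.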
B: 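Phenotypic screen: M. tuberculosis growth, glucose 7H9 medium, 3 days; the read-out is not stated. Compounds at 50 µM. Direction is inferred from retests: higher values go with more growth inhibition. About 69,000 compounds were tested under these conditions; 1.1% (about 760) showed 50% or more at least once.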

The filed quantity is “Percent Effect” (%).
How 0% and 100% were set is not recorded. Most values in the screen are low, and negative values occur.
The compounds are a random part of those screened.
Two or more numbers in one place are separate tests of the same structure; such repeats can differ widely.

| # | SMILES | A | B |
|---|---|---|---|
| 1 | `COc1ccc(OC)c(-n2cnnc2COC(C)C)c1` | -0.7336 | 1.817 |
| 2 | `COc1ccc(C)nc1NC(=O)Cc1c(C)nn(C)c1C` | -18.2 | 5.969 |
| 3 | `CC1(C)CNC(=O)c2nc(-c3nnc(-c4ccccc4)[nH]3)[nH]c2C1` | 1.569 | 29.47 |
| 4 | `Cl.Cl.c1cncc(OC[C@@H]2CCC[C@@]23CNCCO3)c1` | -25.55 | -12.8 |
| 5 | `COc1ccccc1N1CCN(C(=O)CCn2ccnc2C)CC1(C)C` | -17.22 | -20.63 |
| 6 | `CSc1ncc(C(=O)NCc2cc3n(n2)CCCN(CC(C)C)C3)cn1` | -16.75 | -1.038 & -32.21 |
| 7 | `CC1c2ncc(Cn3cncn3)n2CCN1C(=O)c1cscn1` (centres undefined) | -23.41 | -19.35 |
| 8 | `[H][C@@]12CCN(C(=O)C3CCOCC3)C[C@]1(COC)CCO2` | -10.6 | 8.917 |
| 9 | `CN(C)CC(=O)N1CCOCC(Cc2ccccn2)C1` (centres undefined) | -13.98 | -19.13 |
| 10 | `CC(=O)NCC(=O)NC1CCc2c(ccc(=O)n2CC2CC2)C1` (centres undefined) | 6.501 | -15.54 & -9.247 |
| 11 | `CC1(C2CCN(CC(N)=O)CC2)CN(Cc2ccccc2)C(=O)O1` (centres undefined) | 8.194 | 3.89 |
| 12 | `[H][C@]12CC[C@]([H])(CN(C(=O)Cc3c(C)nc(C)[nH]c3=O)C1)N(CC1CCC1)C2` | 0.9866 | 7.943 |
| 13 | `CC(C)(C)OC(=O)N1CCC(C(=O)NC2CCS(=O)(=O)C2)CC1` (centres undefined) | 5.775 | -0.4088 & -2.039 |
| 14 | `CCOC(=O)c1cccc(N2CCCC3(CCC(=O)N(C4CC4)C3)C2)n1` (centres undefined) | -9.928 | 2.44 |
| 15 | `O=C(O)C(F)(F)F.O=C(O)C(F)(F)F.[H][C@]12CCN(c3cccc(C)n3)C[C@@]1([H])OCCN(Cc1csc(C)n1)C2` | -10.23 | 2.176 |
| 16 | `CCC[C@H]1CN(Cc2nccn2C)C[C@@H]1NC(=O)C1(COC)CCC1` | 15.22 | 18.89 |
| 17 | `Cc1cc(Cc2ccc(F)cc2)cc(C2CCCNC2)n1` (centres undefined) | 24.34 | 12.07 |
| 18 | `[H][C@@]12CN(C3CCOCC3)C(=O)N1CCN(S(C)(=O)=O)C2` | 2.866 | -2.818 & -0.7642 |
| 19 | `O=C(O)C(F)(F)F.c1cncc(N2CCOCC3(CCCN(c4nncs4)C3)C2)c1` (centres undefined) | -29.59 | -20.56 |
| 20 | `O=C(Nc1cccc(F)c1)C1CCN(Cc2noc(C3CC3)n2)CC1` | 26.68 | 26.49 & 9.065 |
| 21 | `CC(NC1CCN(CCc2ccncc2)CC1)c1cnn(C(C)C)c1` (centres undefined) | 13.12 | 39.19 |
| 22 | `CC(=O)N[C@@H]1CN(Cc2nc3ccccc3[nH]2)C[C@H]1c1ccc(C)o1` | 1.21 & -10.95 | 3.846 |
| 23 | `Cc1ccc(OCC(O)COC2CCOCC2)c(Cl)c1` (centres undefined) | 6.966 | 14.59 |
| 24 | `CCN(C)c1ncnc2c1CCN(Cc1nccs1)CC2.O=C(O)C(F)(F)F.O=C(O)C(F)(F)F` | -13.2 | -21.51 |
| 25 | `CN(C)c1nc(N2CCCC2)nc2c1CCN(C(=O)c1ccoc1)CC2` | 6.955 | 2.965 & -8.295 |
| 26 | `O=C(O)C(F)(F)F.[H][C@]12CCN(C(=O)c3ccoc3)[C@@]1([H])CC[C@H](COCCN(C)C)O2` | -10.15 | 11.16 |
| 27 | `Cc1ccc(CC(NC(=O)CN(C)C2CC2)c2ccccn2)cc1` (centres undefined) | 16.38 & 21.23 | 49.16 |
| 28 | `CC(O)CNc1nc(-c2cccnc2)nc2c1CCC2` (centres undefined) | 18.91 | -13.39 |
| 29 | `CC(C)c1noc(C2CC(=O)N(CCN(C)C)C2)n1` (centres undefined) | -21.58 | -3.856 |
| 30 | `[H][C@]12CCC[C@@]1(COCC1CCOCC1)CN(S(=O)(=O)N(C)C)C2` | -18.77 | -8.664 & -34.19 |
| 31 | `Cn1c(CN2CCCCC2)cc(=O)c(O)c1CN1CCCCC1` | 12.34 | 3.414 |
| 32 | `O=C(c1ccc2c(c1)CCC2)N1CCCCC1C1OCCO1` (centres undefined) | 1.735 | -3.99 |
| 33 | `c1cnn(C2CN(c3nc(-c4ccncc4)nc4c3CCC4)C2)c1` | -11.19 | -5.078 & 1.778 |
| 34 | `CC1(C)CC1C(=O)NS(=O)(=O)Cc1cc(-c2ccccc2)no1` (centres undefined) | 9.975 | 32.64 |
| 35 | `O=C(C1CCOCC1)N1CC[C@H](O)[C@@H]1Cc1cccnc1` | 1.743 | 23.33 |
| 36 | `OC(CNc1ncnc2c1CCNCC2)C(F)(F)F` (centres undefined) | -4.477 | 16.39 |
| 37 | `CCn1ccc(-c2cc(C(=O)O)n3ncc(Br)c3n2)n1` | 19.19 | 34.9 & 1.384 |
| 38 | `Cc1ccccc1CN1CCC(c2nn(CCN)c3nccnc23)C1` (centres undefined) | 2.106 | 33.95 |
| 39 | `CNC(=O)[C@@H](c1ccccc1F)N1CCC[C@H]1C(=O)NC1CCOCC1.Cl` | 7.426 | -7.659 & 12.5 |
| 40 | `O=c1cc(CNCc2ccc3c(c2)OCO3)nc2ccc(Br)cn12` | -19.59 | -19.43 |
| 41 | `CC(C)c1noc(CCC(=O)N2CCN(C)CC2c2ccccc2)n1` (centres undefined) | -33.78 | -31.12 & -4.818 |
| 42 | `Cc1nc(C)c(C(=O)NCCNc2ncccc2C#N)s1` | -12 | 11.88 |
| 43 | `CC(O)CN1CCC(CN(C)Cc2ccc(C#N)cc2)CC1` (centres undefined) | 7.595 | 19.38 |
| 44 | `Cc1nc(C)c(CC(=O)N2CCC(Oc3ccccc3)CC2)c(=O)[nH]1` | 20.24 | -7.093 & 17.29 |

Once more, the final 5:

With O=c1cc(CNCc2ccc3c(c2)OCO3)nc2ccc(Br)cn12 the screen gave A: -19.59%; B: -19.43%.
With CC(C)c1noc(CCC(=O)N2CCN(C)CC2c2ccccc2)n1 (centres undefined) the screen gave A: -33.78%; B: -31.12% & -4.818%.
With Cc1nc(C)c(C(=O)NCCNc2ncccc2C#N)s1 the screen gave A: -12%; B: 11.88%.
With CC(O)CN1CCC(CN(C)Cc2ccc(C#N)cc2)CC1 (centres undefined) the screen gave A: 7.595%; B: 19.38%.
With Cc1nc(C)c(CC(=O)N2CCC(Oc3ccccc3)CC2)c(=O)[nH]1 the screen gave A: 20.24%; B: -7.093% & 17.29%.